# Reference: the supplement of paper PMC10849652
# Amino acid sequences for entries named in this document (tags omitted). A change or cut given only in a name is not applied to a line headed by its entry.
# UniProt Q99805: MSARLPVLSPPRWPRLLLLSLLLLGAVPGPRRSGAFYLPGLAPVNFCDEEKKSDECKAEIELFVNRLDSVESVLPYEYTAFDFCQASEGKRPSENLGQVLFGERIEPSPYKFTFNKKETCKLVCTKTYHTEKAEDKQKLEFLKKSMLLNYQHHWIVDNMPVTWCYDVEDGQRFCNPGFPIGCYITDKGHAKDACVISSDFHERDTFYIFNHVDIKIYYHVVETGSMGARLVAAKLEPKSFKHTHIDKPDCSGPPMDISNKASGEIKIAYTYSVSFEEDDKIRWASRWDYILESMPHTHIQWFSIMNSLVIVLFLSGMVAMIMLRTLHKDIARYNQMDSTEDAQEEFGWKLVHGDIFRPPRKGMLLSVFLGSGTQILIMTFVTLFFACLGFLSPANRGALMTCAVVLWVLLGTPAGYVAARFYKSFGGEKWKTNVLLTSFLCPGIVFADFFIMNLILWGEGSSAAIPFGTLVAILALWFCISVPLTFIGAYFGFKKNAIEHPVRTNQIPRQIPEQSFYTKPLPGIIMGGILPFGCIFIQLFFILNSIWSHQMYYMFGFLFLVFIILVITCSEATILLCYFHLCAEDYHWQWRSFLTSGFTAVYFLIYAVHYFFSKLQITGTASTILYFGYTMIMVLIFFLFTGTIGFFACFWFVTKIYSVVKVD
# UniProt O00220, whole entry, looked up: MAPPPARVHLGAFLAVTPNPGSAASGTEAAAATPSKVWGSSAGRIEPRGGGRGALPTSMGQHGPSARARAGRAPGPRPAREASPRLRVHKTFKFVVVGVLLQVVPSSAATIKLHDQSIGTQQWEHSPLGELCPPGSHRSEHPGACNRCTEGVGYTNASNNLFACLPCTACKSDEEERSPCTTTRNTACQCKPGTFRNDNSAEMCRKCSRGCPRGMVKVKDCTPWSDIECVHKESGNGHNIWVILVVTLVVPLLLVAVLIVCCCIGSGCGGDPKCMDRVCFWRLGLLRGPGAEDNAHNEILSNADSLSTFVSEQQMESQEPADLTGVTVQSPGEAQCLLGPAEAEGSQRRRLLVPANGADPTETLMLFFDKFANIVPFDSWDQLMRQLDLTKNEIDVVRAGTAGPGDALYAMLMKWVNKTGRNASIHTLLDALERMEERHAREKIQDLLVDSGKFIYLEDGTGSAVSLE
# UniProt Q8NE00: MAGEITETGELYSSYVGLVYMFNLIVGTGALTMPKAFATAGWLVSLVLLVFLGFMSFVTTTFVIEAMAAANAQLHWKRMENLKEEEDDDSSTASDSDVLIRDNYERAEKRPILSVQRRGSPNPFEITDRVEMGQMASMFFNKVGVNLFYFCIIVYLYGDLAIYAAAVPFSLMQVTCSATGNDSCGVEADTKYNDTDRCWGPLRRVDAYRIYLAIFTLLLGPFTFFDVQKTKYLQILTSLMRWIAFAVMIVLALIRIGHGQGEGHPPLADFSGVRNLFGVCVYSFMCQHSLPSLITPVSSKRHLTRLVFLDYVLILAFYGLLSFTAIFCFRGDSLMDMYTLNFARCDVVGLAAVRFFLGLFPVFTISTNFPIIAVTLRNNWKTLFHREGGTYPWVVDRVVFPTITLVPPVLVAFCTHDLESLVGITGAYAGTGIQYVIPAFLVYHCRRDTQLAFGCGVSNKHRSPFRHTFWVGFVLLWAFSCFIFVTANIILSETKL
# UniProt A0PK00: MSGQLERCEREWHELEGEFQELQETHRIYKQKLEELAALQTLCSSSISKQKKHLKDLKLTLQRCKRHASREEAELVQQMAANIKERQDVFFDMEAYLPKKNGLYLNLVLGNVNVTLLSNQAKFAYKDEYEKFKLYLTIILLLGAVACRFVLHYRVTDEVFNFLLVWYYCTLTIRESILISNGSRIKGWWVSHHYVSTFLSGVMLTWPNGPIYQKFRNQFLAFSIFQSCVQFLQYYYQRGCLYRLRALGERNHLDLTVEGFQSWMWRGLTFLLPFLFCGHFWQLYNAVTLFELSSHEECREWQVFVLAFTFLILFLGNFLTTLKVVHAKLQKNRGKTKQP
# UniProt Q5T292: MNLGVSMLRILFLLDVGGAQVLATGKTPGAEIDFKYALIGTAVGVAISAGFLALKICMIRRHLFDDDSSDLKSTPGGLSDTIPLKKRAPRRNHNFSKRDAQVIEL
# UniProt Q9ULS5: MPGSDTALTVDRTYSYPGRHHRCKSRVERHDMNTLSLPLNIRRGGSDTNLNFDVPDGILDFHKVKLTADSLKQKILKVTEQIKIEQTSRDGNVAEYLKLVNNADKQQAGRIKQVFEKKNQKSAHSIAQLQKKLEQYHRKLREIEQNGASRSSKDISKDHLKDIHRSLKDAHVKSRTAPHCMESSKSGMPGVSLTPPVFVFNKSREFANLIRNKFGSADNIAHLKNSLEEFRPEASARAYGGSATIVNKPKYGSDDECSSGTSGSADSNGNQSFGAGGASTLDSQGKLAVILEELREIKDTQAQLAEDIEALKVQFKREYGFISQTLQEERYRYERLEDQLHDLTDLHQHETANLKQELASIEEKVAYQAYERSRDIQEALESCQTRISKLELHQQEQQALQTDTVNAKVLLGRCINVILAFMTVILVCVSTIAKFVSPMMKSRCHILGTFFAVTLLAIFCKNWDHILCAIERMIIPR
# UniProt Q9NQ34: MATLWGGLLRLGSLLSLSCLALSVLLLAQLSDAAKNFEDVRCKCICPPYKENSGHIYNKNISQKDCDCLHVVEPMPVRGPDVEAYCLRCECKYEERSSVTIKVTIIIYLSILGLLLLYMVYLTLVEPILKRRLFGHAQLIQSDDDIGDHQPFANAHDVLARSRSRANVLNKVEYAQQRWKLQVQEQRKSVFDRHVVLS
# UniProt Q96Q45: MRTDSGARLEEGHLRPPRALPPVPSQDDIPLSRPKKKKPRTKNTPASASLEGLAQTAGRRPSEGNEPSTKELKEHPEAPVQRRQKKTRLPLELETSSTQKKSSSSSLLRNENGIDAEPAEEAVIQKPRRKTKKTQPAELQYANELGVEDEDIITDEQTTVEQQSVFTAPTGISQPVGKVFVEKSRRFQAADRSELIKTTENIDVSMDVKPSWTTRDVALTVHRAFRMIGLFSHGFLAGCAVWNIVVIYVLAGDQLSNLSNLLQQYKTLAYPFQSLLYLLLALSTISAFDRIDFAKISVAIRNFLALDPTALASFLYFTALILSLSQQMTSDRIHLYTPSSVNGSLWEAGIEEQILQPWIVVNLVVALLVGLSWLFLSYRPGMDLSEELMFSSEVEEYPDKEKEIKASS
# UniProt Q9BSA9: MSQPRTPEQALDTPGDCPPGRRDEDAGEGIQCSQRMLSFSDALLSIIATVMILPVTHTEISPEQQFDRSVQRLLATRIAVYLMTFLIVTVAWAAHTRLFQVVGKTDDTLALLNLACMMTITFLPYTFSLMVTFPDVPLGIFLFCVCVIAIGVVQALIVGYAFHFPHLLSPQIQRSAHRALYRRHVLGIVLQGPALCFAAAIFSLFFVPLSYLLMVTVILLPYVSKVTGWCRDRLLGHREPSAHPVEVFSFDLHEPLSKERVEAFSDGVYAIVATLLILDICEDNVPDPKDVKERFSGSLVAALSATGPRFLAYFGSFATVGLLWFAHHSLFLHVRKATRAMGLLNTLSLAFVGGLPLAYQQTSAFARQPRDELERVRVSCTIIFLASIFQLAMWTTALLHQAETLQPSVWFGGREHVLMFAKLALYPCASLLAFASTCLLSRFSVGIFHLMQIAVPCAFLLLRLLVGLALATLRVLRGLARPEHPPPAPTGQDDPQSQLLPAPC
# UniProt Q9P2C4: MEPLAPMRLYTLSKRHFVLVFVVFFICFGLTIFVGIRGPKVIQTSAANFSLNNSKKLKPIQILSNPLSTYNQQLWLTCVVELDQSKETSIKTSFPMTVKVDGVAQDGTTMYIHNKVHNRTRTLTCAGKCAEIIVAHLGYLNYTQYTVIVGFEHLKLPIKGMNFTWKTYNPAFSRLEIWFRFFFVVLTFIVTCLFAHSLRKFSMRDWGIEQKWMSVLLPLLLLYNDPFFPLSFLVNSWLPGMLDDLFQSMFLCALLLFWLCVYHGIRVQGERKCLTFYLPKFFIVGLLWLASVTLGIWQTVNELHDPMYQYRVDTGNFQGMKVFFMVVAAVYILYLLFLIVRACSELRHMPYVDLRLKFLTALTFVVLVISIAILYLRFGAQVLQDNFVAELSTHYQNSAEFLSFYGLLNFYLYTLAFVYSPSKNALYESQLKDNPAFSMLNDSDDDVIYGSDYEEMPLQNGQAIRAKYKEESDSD
# UniProt Q96AN5: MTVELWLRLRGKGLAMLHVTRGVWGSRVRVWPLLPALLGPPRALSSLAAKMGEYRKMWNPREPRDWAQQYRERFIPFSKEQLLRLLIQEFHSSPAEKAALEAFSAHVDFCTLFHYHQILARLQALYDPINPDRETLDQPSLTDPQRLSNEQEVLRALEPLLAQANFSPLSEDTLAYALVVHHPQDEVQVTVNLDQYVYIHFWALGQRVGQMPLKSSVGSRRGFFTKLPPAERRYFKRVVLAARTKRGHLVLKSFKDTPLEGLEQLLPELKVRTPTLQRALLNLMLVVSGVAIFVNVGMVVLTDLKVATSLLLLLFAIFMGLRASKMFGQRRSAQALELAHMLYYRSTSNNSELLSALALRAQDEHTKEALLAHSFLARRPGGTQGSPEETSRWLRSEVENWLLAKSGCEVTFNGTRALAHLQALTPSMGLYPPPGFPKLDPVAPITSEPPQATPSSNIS
# This is one part of the list.
# What was measured:
# Test in all cases: log2 fold change, soluble protein after heating vs DMSO (PISA); higher = thermal stabilisation; K562 cells, 10 uM, 30 min; active = over 0.2 and 3.5 SD of the protein, either way, in both replicates (recomputed)
# saracatinib = compound: CN1CCN(CCOc2cc(OC3CCOCC3)c3c(Nc4c(Cl)ccc5c4OCO5)ncnc3c2)CC1 [saracatinib]
# In short: (§1)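 Values are thermal stability changes relative to control samples and are taken from duplicates. They are stated as log2 fold changes. Before quantification by TMTpro 16plex LC-MS/MS with equalised channel sums, K562 cells at 2×10^6 cells/mL were treated with 10 μM compound for 30 min, heated in aliquots for 3 min across 48°C-58°C, pooled, extracted in PBS with 0.5% NP-40 at 4°C, and centrifuged at 21,000xg for 90 min to give the soluble supernatant.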
# sotrastaurin = compound: CN1CCN(c2nc(C3=C(c4c[nH]c5ccccc45)C(=O)NC3=O)c3ccccc3n2)CC1 [sotrastaurin]
# In short: as §1
# Tubastatin A = compound: CN1CCc2c(c3ccccc3n2Cc2ccc(C(=O)NO)cc2)C1 [Tubastatin A]
# In short: as §1
# [1] = compound: CNC(=O)C1=CC=CC=C1NC2=NC(=NC=C2Cl)NC3=C(C=C(C=C3)N4CCOCC4)OC
# In short: as §1
# defactinib = compound: CNC(=O)c1ccc(Nc2ncc(C(F)(F)F)c(NCc3nccnc3N(C)S(C)(=O)=O)n2)cc1 [defactinib]
# In short: as §1
# rucaparib = compound: CNCc1ccc(-c2[nH]c3cc(F)cc4c3c2CCNC4=O)cc1 [rucaparib]
# In short: as §1
# [2] = compound: CNc1nc(-c2ccc3c(N)n[nH]c3c2)cc(N2C[C@@H](C(=O)NC3CCCCC3)CC[C@H]2C)n1
# In short: as §1
# encorafenib = compound: COC(=O)N[C@@H](C)CNc1nccc(-c2cn(C(C)C)nc2-c2cc(Cl)cc(NS(C)(=O)=O)c2F)n1 [encorafenib]
# In short: as §1
# [3] = compound: COC(=O)[C@H](CCSC)NC(=O)C1=C(C=C(C=C1)NC[C@H](CS)N)C2=CC=CC=C2
# In short: as §1
# [4] = compound: COC1=CC=C(C=C1)CN2C=CC3=C2C=C(C=C3)C(=O)NO
# In short: as §1
# filanesib = compound: CON(C)C(=O)N1N=C(c2cc(F)ccc2F)S[C@@]1(CCCN)c1ccccc1 [filanesib]
# In short: as §1
# zotarolimus = compound: CO[C@H]1C[C@@H]2CC[C@@H](C)[C@@](O)(O2)C(=O)C(=O)N2CCCC[C@H]2C(=O)O[C@H]([C@H](C)C[C@@H]2CC[C@H](n3cnnn3)[C@H](OC)C2)CC(=O)[C@H](C)/C=C(\C)[C@@H](O)[C@@H](OC)C(=O)[C@H](C)C[C@H](C)/C=C/C=C/C=C/1C [zotarolimus]
# In short: as §1
# idasanutlin = compound: COc1cc(C(=O)O)ccc1NC(=O)[C@@H]1N[C@@H](CC(C)(C)C)[C@](C#N)(c2ccc(Cl)cc2F)[C@H]1c1cccc(Cl)c1F [idasanutlin]
# In short: as §1
# alisertib = compound: COc1cc(Nc2ncc3c(n2)-c2ccc(Cl)cc2C(c2c(F)cccc2OC)=NC3)ccc1C(=O)O [alisertib]
# In short: as §1
# [5] = compound: COc1cc2nc(-c3cc(F)ccc3O)nc(N[C@@H]3CNC[C@H]3C(C)(C)O)c2cc1OC
# In short: as §1
# gefitinib = compound: COc1cc2ncnc(Nc3ccc(F)c(Cl)c3)c2cc1OCCCN1CCOCC1 [gefitinib]
# In short: as §1
# [6] = compound: COc1cccc2cc(-c3nc([C@H]4CC[C@H](C(=O)O)CC4)n4ncnc(N)c34)[nH]c12
# In short: as §1
# lapatinib = compound: CS(=O)(=O)CCNCc1ccc(-c2ccc3ncnc(Nc4ccc(OCc5cccc(F)c5)c(Cl)c4)c3c2)o1 [lapatinib]
# In short: as §1
# pictilisib = compound: CS(=O)(=O)N1CCN(Cc2cc3nc(-c4cccc5[nH]ncc45)nc(N4CCOCC4)c3s2)CC1 [pictilisib]
# In short: as §1
# alvocidib = compound: CN1CC[C@H](c2c(O)cc(O)c3c(=O)cc(-c4ccccc4Cl)oc23)[C@H](O)C1 [alvocidib]
# In short: as §1
Target,log2 fold change (saracatinib),log2 fold change (sotrastaurin),log2 fold change (Tubastatin A),log2 fold change [1],log2 fold change (defactinib),log2 fold change (rucaparib),log2 fold change [2],log2 fold change (encorafenib),log2 fold change [3],log2 fold change [4],log2 fold change (filanesib),log2 fold change (zotarolimus),log2 fold change (idasanutlin),log2 fold change (alisertib),log2 fold change [5],log2 fold change (gefitinib),log2 fold change [6],log2 fold change (lapatinib),log2 fold change (pictilisib),log2 fold change (alvocidib)
TM9SF2 (UniProt Q99805),inactive: 0.038,inactive: -0.01,inactive: -0.001,inactive: 0.005,inactive: 0.006,inactive: 0.015,inactive: -0.031,inactive: 0.001,inactive: -0.069,inactive: -0.06,inactive: -0.073,inactive: 0.043,inactive: -0.103,inactive: -0.01,inactive: -0.061,inactive: 0.009,inactive: 0.007,inactive: 0.011,inactive: 0.085,–
TNFRSF10A (UniProt O00220),inactive: -0.038,inactive: -0.012,inactive: 0.04,inactive: -0.052,inactive: 0.039,inactive: 0.017,inactive: 0.02,inactive: 0.031,inactive: 0.056,inactive: -0.046,inactive: 0.028,inactive: -0.035,inactive: 0.058,inactive: -0.021,inactive: 0.024,inactive: -0.012,inactive: -0.002,inactive: -0.073,active: 0.304,–
TMEM104 (UniProt Q8NE00),inactive: -0.024,–,–,inactive: -0.007,–,inactive: 0.06,inactive: -0.122,inactive: 0.056,–,inactive: 0.134,–,inactive: -0.01,inactive: -0.081,inactive: -0.012,inactive: 0.016,inactive: 0.061,inactive: 0.164,inactive: -0.156,inactive: -0.341,–
TMEM120B (UniProt A0PK00),inactive: 0,–,inactive: 0.252,inactive: 0.041,inactive: -0.188,–,inactive: 0.107,–,inactive: -0.208,inactive: 0.096,–,inactive: -0.011,inactive: -0.122,inactive: 0.131,–,inactive: -0.044,inactive: -0.451,–,inactive: -0.306,inactive: -0.119
TMEM273 isoform 2 (UniProt Q5T292),–,–,inactive: 0.216,–,inactive: -0.025,–,–,–,inactive: -0.099,–,–,–,inactive: 0.06,–,–,inactive: 0.018,–,–,–,–
TMCC3 (UniProt Q9ULS5),–,inactive: 0.073,–,–,–,inactive: -0.189,–,inactive: 0.139,–,–,inactive: -0.032,–,–,inactive: -0.282,–,inactive: 0.033,inactive: 0.169,–,–,–
TMEM9B (UniProt Q9NQ34),–,inactive: 0.019,inactive: -0.033,inactive: -0.029,inactive: -0.029,inactive: -0.02,–,inactive: 0.063,inactive: -0.001,inactive: 0.001,inactive: -0.039,inactive: 0.014,inactive: 0.036,inactive: -0.032,inactive: 0.011,inactive: -0.047,inactive: -0.068,inactive: -0.118,inactive: 0.07,–
TMEM237 isoform 3 (UniProt Q96Q45),–,inactive: -0.085,inactive: 0.056,inactive: -0.03,inactive: 0.08,inactive: 0.173,–,inactive: 0.026,inactive: -0.217,–,inactive: 0.482,–,–,inactive: -0.31,–,–,inactive: -0.334,–,inactive: -0.333,–
TMEM175 (UniProt Q9BSA9),inactive: -0.095,–,inactive: 0.014,inactive: 0.023,–,inactive: 0.039,inactive: -0.098,inactive: 0.076,–,–,–,–,inactive: -0.352,–,inactive: 0.044,–,–,inactive: -0.065,–,–
TMEM181 (UniProt Q9P2C4),inactive: 0.109,–,inactive: -0.085,inactive: 0.026,inactive: -0.017,inactive: 0.052,inactive: 0.003,inactive: -0.032,inactive: -0.16,inactive: 0.269,–,inactive: 0.098,inactive: 0.057,inactive: -0.006,inactive: -0.113,–,inactive: -0.013,inactive: 0.012,inactive: -0.023,inactive: 0.098
TMEM143 (UniProt Q96AN5),–,inactive: 0.107,inactive: 0.067,inactive: -0.021,–,inactive: 0.011,–,inactive: 0.114,–,inactive: 0.153,inactive: -0.094,–,inactive: -0.071,inactive: -0.239,–,–,inactive: -0.041,–,–,–
